Experimental data from patent US9018173B2, “Materials and methods for suppressing inflammatory and neuropathic pain” (Indiana University Research and Technology Corp., priority 2010, dated 2015).
Like-named read-outs stand apart in the source and are kept apart here. At least one peptide structure holds a part that was inferred or is arguable (an end, a ring closure or a residue). Residues, ends and D or L forms follow the SMILES beside them.

Amino acid sequences for entries named in this document (tags omitted).
UniProt Q02294, whole entry: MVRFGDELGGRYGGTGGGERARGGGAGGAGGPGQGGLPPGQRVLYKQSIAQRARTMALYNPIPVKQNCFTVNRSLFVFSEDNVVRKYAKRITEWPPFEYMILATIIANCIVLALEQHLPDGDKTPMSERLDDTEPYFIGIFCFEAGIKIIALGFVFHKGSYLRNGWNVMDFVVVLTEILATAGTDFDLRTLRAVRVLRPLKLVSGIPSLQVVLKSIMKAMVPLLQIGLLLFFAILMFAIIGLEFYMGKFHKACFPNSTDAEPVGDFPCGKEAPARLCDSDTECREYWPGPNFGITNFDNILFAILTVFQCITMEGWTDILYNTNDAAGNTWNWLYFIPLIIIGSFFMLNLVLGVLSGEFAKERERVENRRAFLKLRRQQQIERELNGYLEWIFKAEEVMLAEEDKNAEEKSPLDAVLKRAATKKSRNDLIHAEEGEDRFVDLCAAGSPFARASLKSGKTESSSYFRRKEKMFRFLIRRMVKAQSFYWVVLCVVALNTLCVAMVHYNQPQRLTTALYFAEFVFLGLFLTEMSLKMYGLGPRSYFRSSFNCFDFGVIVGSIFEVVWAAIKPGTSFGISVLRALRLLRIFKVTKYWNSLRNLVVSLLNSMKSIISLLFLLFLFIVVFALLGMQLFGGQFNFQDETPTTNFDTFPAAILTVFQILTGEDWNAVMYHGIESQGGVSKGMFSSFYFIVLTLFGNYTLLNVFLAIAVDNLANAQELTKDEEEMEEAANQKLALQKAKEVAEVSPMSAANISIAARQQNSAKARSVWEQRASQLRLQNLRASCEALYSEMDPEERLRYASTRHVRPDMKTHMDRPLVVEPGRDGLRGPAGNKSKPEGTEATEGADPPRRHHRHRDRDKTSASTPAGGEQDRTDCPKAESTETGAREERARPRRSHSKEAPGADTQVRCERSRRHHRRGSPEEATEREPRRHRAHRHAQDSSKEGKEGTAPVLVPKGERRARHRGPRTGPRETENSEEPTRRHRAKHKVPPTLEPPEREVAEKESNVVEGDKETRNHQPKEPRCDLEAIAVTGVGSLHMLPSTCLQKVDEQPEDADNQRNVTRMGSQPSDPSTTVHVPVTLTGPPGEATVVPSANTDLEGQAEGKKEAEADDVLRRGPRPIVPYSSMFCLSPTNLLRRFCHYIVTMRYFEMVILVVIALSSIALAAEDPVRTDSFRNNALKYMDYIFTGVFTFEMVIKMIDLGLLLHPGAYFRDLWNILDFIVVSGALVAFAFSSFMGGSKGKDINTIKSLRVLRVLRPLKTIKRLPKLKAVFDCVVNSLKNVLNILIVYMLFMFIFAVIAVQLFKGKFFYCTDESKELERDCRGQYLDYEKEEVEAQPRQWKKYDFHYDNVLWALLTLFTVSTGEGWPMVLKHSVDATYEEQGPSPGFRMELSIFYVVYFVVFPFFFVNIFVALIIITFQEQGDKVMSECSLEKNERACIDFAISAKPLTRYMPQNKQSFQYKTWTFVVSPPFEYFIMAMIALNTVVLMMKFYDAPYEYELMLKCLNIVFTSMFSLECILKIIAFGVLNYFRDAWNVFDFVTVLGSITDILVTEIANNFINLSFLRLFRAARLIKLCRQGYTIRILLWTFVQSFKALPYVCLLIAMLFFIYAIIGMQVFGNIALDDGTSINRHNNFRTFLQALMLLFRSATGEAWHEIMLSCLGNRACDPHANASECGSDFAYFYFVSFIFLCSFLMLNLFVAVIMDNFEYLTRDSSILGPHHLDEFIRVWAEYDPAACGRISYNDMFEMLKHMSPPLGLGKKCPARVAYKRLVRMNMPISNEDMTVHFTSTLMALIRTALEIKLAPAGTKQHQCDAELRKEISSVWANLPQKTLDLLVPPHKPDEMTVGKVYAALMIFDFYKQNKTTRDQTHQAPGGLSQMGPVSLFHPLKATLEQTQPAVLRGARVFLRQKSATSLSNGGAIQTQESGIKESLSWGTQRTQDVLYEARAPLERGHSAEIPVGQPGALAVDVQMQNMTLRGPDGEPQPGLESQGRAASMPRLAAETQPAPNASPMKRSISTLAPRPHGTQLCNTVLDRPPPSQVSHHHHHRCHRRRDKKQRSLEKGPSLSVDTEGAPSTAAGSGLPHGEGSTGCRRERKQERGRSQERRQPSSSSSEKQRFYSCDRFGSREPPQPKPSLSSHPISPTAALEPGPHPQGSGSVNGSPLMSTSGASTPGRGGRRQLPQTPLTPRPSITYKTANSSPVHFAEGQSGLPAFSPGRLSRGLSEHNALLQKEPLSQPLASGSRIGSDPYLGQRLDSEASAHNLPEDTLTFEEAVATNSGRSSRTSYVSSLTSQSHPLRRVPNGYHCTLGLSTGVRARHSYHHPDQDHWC
UniProt O35433, whole entry: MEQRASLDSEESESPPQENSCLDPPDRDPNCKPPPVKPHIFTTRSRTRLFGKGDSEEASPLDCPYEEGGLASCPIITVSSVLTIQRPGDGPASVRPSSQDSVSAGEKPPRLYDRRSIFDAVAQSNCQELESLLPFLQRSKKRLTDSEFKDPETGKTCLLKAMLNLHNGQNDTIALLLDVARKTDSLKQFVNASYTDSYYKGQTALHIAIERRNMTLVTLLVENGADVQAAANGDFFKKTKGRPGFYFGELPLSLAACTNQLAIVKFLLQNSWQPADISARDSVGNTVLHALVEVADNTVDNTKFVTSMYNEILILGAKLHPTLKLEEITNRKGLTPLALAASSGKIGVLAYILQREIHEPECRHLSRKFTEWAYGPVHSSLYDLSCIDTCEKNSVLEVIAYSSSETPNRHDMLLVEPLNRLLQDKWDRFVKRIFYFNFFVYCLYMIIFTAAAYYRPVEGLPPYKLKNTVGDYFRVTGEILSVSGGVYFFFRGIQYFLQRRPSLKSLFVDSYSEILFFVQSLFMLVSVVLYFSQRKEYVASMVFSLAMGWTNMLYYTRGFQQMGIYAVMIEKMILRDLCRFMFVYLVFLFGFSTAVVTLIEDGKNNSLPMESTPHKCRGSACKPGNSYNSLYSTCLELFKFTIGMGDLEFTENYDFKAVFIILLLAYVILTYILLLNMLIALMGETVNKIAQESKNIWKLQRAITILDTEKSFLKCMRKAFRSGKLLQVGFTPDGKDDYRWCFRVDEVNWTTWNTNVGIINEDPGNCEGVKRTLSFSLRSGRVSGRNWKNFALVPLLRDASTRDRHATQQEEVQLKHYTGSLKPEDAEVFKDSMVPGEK

Legend:
[1] = target: Ca2+ currents in DRGs (N-type channels) (Rattus norvegicus, UniProt Q02294); experiment: Whole-cell patch-clamp Ca2+ currents in DRG sensory neurons; format: cell-based; conditions: 10 μM, 15 min application to DRGs
[2] = test system: K+-evoked Ca2+ influx in DRG neurons; experiment: Fura-2 calcium imaging of DRG sensory neurons; format: cell-based, rat; conditions: 10 μM, 10 min; 45 mM KCl; Nifedipine with or without ω-CTX
[3] = test system: capsaicin-stimulated iCGRP release from spinal cord slices; experiment: Capsaicin-stimulated iCGRP release from spinal cord slices; format: cell-based, rat; conditions: for capsaicin-evoked iCGRP release: 500 nM capsaicin
TRPV1 channels = target: T1, TRPV1 channels (Rattus norvegicus, UniProt O35433); experiment: Capsaicin-evoked TRPV1 currents in DRG neurons; format: cell-based; conditions: 10 μM, 10 min via recording pipette or overnight in medium
T1 construct: Whole cell patch-clamp recordings using standard techniques were conducted in adult rat DRG; endogenous in cells; host or cells: primary adult rat DRG neurons

[4] = test system: formalin-induced nocifensive behavior; experiment: Formalin test; format: in vivo, rat
Description: (§1) Referring now to FIG. 16. TAT-CBD3 reduces acute, inflammatory and neuropathic pain. (FIG. 16A) Time course of number of flinches following subcutaneous (dorsal surface of paw) injection of formalin (2.5%; 50 μl saline) in animals pretreated with peptides (3-100 μM; 20 μl dorsal surface of paw) 30 min before formalin (n=4-10). (FIG. 16B) The effect of peptides on number of flinches on formalin-induced phase 1 (0-10 min) and phase 2 (15-60 min). *, p<0.05 versus formalin-injected animals. (FIG. 16C) Formalin induces paw edema. Paw thickness was measured 1 h after injection of saline, formalin, and formalin+peptides (100 μM). *, p<0.05 versus saline-injected animals. (FIG. 16D) Pretreatment with TAT-CBD3 attenuates capsaicin-evoked nocifensive behavior. Vehicle (0.3% DMSO) or peptides (concentrations as indicated) in saline (40 μL) was instilled corneally and nocifensive behavior noted. Five minutes later, capsaicin (Cap; 3 μM, 40 μL saline) was applied corneally and nocifensive behavior noted. *, p<0.05 versus 30 or 100 μM TAT-scramble or 3 μM TAT-CBD3, ^#, p<0.05 versus all conditions except 3 μM TAT-CBD3 (ANOVA with Dunnett's post-hoc test). […] (FIGS. 16F-I) DRGs, isolated 15 min after injection of FITC-TAT-CBD3, were labeled with anti-NeuN antibody. […] Hoechst (FIG. 16H, blue) indicates nuclear stain. Merged image (FIG. 16I) Scale bars, 100 μm (FIGS. 16F-I). All data reflect mean±SEM.
Formalin Test. Rats were placed in an open Plexiglas observation chamber for 30 min to accommodation. The animals were gently restrained while the dorsal surface of the hindpaw was subcutaneously administered with 50 μl of formalin 2.5% using a 31 G needle. […] A mirror was placed behind the chamber to enable unhindered observation of the formalin-injected paw. […]
Behavioral analyses. […] For the eye-wipe test, vehicle, TAT control or TAT CBD3 peptides (30 μM, 40 μl) were pipetted directly into the right eye and the resulting nocifensive behavior was measured. […] This nocifensive behavior was recorded for five minutes and followed by capsaicin (3 μM; 40 μl saline) application into the pretreated eye. […]

formalin-induced edema = experiment: Formalin-induced paw edema; format: in vivo, rat; conditions: 100 μM; paw thickness 1 h after injection
[5] = test system: capsaicin-evoked nocifensive behavior; experiment: Capsaicin eye-wipe test; format: in vivo, rat
Description: as §1
Eye-wipe test. Male rats (˜150 g) were brought to a quiet, temperature-controlled (22-25° C.) behavioral laboratory in individual cages in which they were allowed to acclimate for at least 0.5 h prior to testing. TAT CBD3 peptide, TAT control peptide or vehicle was pipetted directly into the right eye in a volume of 40 μl and the resulting nocifensive behavior was measured. Nocifensive behavior was defined as time holding the eye shut or time spent actively grooming or wiping the treated eye. This nocifensive behavior was recorded for five minutes and followed by capsaicin (3 μM in 40 μl saline) application into the pretreated eye. Nocifensive behavior was again quantified for 5 minutes following capsaicin application, as described previously. Observers were blinded to treatments. All data are presented as mean±SEM. Significant differences between groups were assessed by two-way analysis of variance with Bonferroni post-tests. Data were analyzed with GraphPad Prism 4.0 (GraphPad, San Diego, Calif., USA).
Behavioral analyses. All behavioral experiments were conducted with the observers blinded to treatments. To produce inflammatory pain, formalin (2.5%, 50 μl) was subcutaneously injected into the dorsal surface of the hindpaw. […] Data are presented as a time course or the cumulative number of flinches during phase 1 (0-8 min) or phase 2 (9-60 min). For the eye-wipe test, vehicle, TAT control or TAT CBD3 peptides (30 μM, 40 μl) were pipetted directly into the right eye and the resulting nocifensive behavior was measured. Nocifensive behavior was defined as time the animal spent (1) holding the eye shut, (2) time spent actively grooming, or (3) wiping the treated eye. This nocifensive behavior was recorded for five minutes and followed by capsaicin (3 μM; 40 μl saline) application into the pretreated eye. Nocifensive behavior was again observed for 5 minutes following capsaicin application, as described previously.

[6] = test system: ddC-induced tactile hypersensitivity; experiment: ddC model of peripheral neuropathy, von Frey paw withdrawal threshold; format: in vivo, rat; conditions: for paw withdrawal threshold in ddC-treated rats: i.p., post-injection day 7
[7] = test system: capsaicin-induced meningeal blood flow changes; conditions: for basal blood flow (effect in words) / changes in basal blood flow, peptide alone: dural administration alone; for changes in basal blood flow, peptide alone: expressed as percentage change relative to basal flow; for capsaicin-induced blood flow changes (effect in words): dural application prior to nasal capsaicin 100 nM
[8] = 30 or 100 μM, 20 μl s.c. dorsal hindpaw, 30 min before formalin 2.5%
[9] = 30 μM, 40 μl into right eye, capsaicin 3 μM
[10] = 1 mg/kg i.p., 1 h after injection
[11] = four hours after i.p. injection

With `CC(C)C[C@H](NC(=O)CNC(=O)[C@H](CCCNC(=N)N)NC(=O)[C@@H]1CCCN1C(=O)[C@@H](NC(=O)CNC(=O)[C@H](CCCNC(=N)N)NC(=O)[C@H](CC(C)C)NC(=O)[C@H](CCC(=O)O)NC(=O)[C@H](C)NC(=O)[C@H](CC(C)C)NC(=O)[C@H](CCCNC(=N)N)NC(=O)[C@H](CO)NC(=O)[C@H](CCCNC(=N)N)NC(=O)[C@H](C)NC(=O)[C@H](CCCNC(=N)N)NC(=O)[C@H](CCCNC(=N)N)NC(=O)[C@H](CCCNC(=N)N)NC(=O)[C@H](CCC(N)=O)NC(=O)[C@H](CCCNC(=N)N)NC(=O)[C@H](CCCNC(=N)N)NC(=O)[C@H](CCCCN)NC(=O)[C@H](CCCCN)NC(=O)[C@H](CCCNC(=N)N)NC(=O)CNC(=O)[C@@H](N)Cc1ccc(O)cc1)C(C)C)C(=O)O` [TAT-CBD3] (H-YGRKKRRQRRRARSRLAELRGVPRGL-OH; N-terminus and C-terminus assumed) the “reduction of Ca2+ currents” value [1] was ~60%, the “K+-evoked Ca2+ influx” value [2] was “reduced K^+-evoked Ca^2+ influx selectively through N-type channels” and the “basal iCGRP release” value ([3]; 10 μM peptide) was “did not affect basal release”. For the same compound, the “capsaicin-evoked iCGRP release” value ([3]; 10 μM peptide) was “but not 10 μM”, the “basal iCGRP release” value ([3]; 20 μM peptide) was “did not change basal iCGRP release” and the iCGRP total content ([3]; 20 μM peptide) was “no differences in iCGRP total content”. For the same compound, the “capsaicin-evoked iCGRP release” value ([3]; 20 μM peptide, compared to TAT-Scramble/TAT control) was “led to a decrease in capsaicin-evoked iCGRP release”, the “capsaicin-evoked iCGRP release” value ([3]; 20 μM peptide, compared to TAT-Scramble/TAT control, listed as TAT CBD3) was “led to a significant decrease in evoked CGRP release” and the “capsaicin-evoked TRPV1 response (peak current density)” value (TRPV1 channels) was “does not affect capsaicin-evoked TRPV1 response”. The “capsaicin-evoked TRPV1 response (peak current density)” value (TRPV1 channels; listed as TAT CBD3) was “did not exhibit differences in capsaicin-evoked current density”, the “formalin-induced flinching, phase 1 and phase 2” value (from here on “formalin-induced flinching”) ([4]; 3 μM pretreatment) was “did not affect the formalin-induced behavior” and the “formalin-induced flinching” value [4, 8] was “displayed blunted nociceptive behaviors in both phases”. For the same compound, the formalin-induced paw edema (formalin-induced edema) was “did not inhibit formalin-induced edema”, the capsaicin-induced nocifensive behavior ([5]; 3 μM corneal pretreatment) was “did not affect nocifensive behavior” and the capsaicin-induced nocifensive behavior [5, 9] was “significantly attenuated the nocifensive behavior”. The capsaicin-induced nocifensive behavior ([5]; 30 or 100 μM corneal pretreatment, capsaicin 3 μM) was “attenuated capsaicin-induced nocifensive behavior”, the “maximal reversal of tactile hyperalgesia” value [6, 10] was 100% and the “reversal of tactile hypersensitivity” value [6, 10] was “Complete reversal of tactile hypersensitivity”. The “decrease of the reversal of hypersensitivity” value [6, 11] was 50%, the “effectiveness in reversal of hyperalgesia” value [6, 11] was “less than 50%” and the “paw withdrawal threshold in ddC-treated rats” value [6] was “caused a dose-dependent increase in PWT”. The “paw withdrawal threshold in ddC-treated rats” value ([6]; listed as TAT CBD3) was “caused a dose-dependent increase in paw withdrawal threshold”, the “paw withdrawal threshold (PWT), peptide alone” value ([6]; without ddC) was “had no effect on paw withdrawal threshold” and the “basal blood flow (effect in words)” value [7] was “did not alter basal blood flow”. For the same compound, the “changes in basal blood flow, peptide alone” value [7] was −4±3, the “basal blood flow (effect in words)” value ([7]; listed as TAT CBD3) was “did not differ from saline” and the “capsaicin-induced blood flow changes (effect in words)” value (“capsaicin-induced blood flow changes” for short) [7] was “inhibited capsaicin-induced blood flow changes in a dose-dependent manner”. The “capsaicin-induced blood flow changes” value ([7]; listed as TAT CBD3) was “significantly inhibited the capsaicin-induced blood flow changes”.
In the case of `CC[C@H](C)[C@H](NC(=O)[C@@H](NC(=O)[C@H](CC(C)C)NC(=O)[C@H](C)NC(=O)[C@H](CCC(=O)O)NC(=O)[C@H](Cc1ccccc1)NC(=O)[C@H](Cc1ccc(O)cc1)NC(=O)[C@H](CC(C)C)NC(=O)[C@H](CCSC)NC(=O)[C@H](CCC(=O)O)NC(=O)[C@H](CCCCN)NC(=O)[C@H](C)NC(=O)[C@H](CCC(=O)O)NC(=O)[C@H](Cc1c[nH]c2ccccc12)NC(=O)[C@H](CCCNC(=N)N)NC(=O)[C@H](CCCNC(=N)N)NC(=O)[C@H](CCCNC(=N)N)NC(=O)[C@H](CCC(N)=O)NC(=O)[C@H](CCCNC(=N)N)NC(=O)[C@H](CCCNC(=N)N)NC(=O)[C@H](CCCCN)NC(=O)[C@H](CCCCN)NC(=O)[C@H](CCCNC(=N)N)NC(=O)CNC(=O)[C@@H](N)Cc1ccc(O)cc1)C(C)C)C(=O)N[C@@H](CCC(=O)O)C(=O)O` [TAT-Scramble, reference compound] (H-YGRKKRRQRRRWEAKEMLYFEALVIE-OH; N-terminus and C-terminus assumed), the “basal iCGRP release” value ([3]; 10 μM peptide) is reported as “did not affect basal release”, the “basal iCGRP release” value ([3]; 20 μM peptide) is reported as “did not change basal iCGRP release” and the “formalin-induced flinching” value [4, 8] is reported as “did not change either phase of the formalin test”. For the same compound, the capsaicin-induced nocifensive behavior [5, 9] was “but not”, the “capsaicin-induced nocifensive response time” value ([5]; 100 μM corneal pretreatment) was “non-specific effect, increasing the nocifensive response time” and the “paw withdrawal threshold in ddC-treated rats” value [6] was “but not”. The “basal blood flow (effect in words)” value [7] was “did not alter basal blood flow”, the “changes in basal blood flow, peptide alone” value [7] was −9±3 and the “capsaicin-induced blood flow changes” value [7] was “did not alter basal blood flow or inhibit capsaicin-induced blood flow”.
